Reference: article PMC8586334
Results are given in words; binding and its absence hold for the method and conditions named. Some results given as binding are weak or reduced against the parent protein; the word gives no strength.

By UniProt entry, the sequences of proteins in these tests, tags left out. Where a name states a change or a piece, a line headed by the entry shows the natural chain unless it says otherwise.
UniProt P22336: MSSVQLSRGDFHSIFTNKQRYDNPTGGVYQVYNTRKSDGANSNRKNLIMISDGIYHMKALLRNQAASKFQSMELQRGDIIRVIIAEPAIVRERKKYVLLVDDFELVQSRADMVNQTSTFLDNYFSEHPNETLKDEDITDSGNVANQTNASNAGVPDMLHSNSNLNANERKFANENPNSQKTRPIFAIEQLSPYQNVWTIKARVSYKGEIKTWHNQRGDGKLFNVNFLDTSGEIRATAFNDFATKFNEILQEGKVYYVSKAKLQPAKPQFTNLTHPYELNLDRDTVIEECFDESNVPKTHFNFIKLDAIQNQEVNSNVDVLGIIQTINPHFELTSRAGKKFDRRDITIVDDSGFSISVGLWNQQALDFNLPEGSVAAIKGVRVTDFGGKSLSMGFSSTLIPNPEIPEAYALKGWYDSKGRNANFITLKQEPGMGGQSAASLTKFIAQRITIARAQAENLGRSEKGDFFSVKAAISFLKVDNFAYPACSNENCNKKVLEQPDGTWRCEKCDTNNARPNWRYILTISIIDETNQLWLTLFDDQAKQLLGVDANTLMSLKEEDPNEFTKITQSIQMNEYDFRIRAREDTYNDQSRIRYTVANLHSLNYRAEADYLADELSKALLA
UniProt P38859: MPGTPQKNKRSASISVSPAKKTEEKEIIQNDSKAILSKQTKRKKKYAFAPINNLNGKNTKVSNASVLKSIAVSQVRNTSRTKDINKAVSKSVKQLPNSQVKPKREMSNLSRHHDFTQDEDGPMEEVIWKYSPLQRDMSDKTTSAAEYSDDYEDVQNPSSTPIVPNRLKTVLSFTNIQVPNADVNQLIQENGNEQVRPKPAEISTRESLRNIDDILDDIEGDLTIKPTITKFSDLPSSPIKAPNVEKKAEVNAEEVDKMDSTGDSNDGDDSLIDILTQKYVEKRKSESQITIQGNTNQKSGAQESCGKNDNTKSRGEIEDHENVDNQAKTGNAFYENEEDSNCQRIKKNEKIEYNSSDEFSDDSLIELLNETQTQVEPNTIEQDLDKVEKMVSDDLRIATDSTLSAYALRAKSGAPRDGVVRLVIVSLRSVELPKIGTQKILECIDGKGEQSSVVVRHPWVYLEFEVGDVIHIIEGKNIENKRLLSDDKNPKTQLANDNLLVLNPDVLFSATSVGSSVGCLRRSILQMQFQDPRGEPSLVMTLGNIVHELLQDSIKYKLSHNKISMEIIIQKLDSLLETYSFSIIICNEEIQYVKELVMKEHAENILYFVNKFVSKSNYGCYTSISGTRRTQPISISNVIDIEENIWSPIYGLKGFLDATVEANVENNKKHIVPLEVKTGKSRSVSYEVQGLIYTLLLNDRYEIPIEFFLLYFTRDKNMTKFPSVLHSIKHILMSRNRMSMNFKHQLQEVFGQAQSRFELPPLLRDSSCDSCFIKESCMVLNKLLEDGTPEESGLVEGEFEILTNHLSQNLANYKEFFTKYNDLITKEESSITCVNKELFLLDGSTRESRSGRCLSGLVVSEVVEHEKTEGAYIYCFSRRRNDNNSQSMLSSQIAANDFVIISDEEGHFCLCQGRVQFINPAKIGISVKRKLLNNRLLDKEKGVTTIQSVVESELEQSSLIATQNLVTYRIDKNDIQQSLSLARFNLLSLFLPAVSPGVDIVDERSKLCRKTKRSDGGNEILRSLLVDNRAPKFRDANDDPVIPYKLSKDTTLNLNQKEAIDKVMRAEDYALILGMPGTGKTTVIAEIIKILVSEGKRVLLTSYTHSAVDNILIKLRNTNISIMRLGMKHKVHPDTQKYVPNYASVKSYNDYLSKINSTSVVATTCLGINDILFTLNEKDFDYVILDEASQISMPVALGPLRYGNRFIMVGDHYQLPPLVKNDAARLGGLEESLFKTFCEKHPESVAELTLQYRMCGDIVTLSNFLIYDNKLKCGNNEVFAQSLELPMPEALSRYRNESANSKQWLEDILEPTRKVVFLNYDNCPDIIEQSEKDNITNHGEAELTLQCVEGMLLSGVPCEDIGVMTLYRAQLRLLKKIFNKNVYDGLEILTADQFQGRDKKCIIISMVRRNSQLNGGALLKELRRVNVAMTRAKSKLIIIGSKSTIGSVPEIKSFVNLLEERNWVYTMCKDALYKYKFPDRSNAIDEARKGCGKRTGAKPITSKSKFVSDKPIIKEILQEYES
UniProt P26754: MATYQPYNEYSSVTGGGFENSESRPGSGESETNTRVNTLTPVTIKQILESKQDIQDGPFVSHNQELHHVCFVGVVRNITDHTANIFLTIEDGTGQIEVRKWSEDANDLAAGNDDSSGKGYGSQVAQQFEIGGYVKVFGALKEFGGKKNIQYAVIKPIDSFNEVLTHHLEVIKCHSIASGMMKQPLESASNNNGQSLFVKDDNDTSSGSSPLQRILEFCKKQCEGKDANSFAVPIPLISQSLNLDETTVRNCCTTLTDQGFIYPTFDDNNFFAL
UniProt P26755: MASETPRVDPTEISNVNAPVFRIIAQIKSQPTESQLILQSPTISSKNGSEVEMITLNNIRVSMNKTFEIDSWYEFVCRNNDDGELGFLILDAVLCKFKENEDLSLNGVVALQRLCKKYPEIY

Assays:
[1] = molecular target: Rfa1, large subunit, as co-expressed in the S. cerevisiae RPA heterotrimer (S. cerevisiae) (UniProt P22336); assay: mass photometry; no DNA; proteins alone or pre-mixed 15 min at room temperature in 25 mM Tris-acetate pH 7.5, 150 mM NaCl, 3 mM EDTA; final 20-80 nM of each protein; both purified
[2] = molecular target: S. cerevisiae Dna2, wild type (S. cerevisiae) (UniProt P38859); assay: as above
[3] = molecular target: T1, Human mitochondrial ssDNA binding protein (mtSSB) (human) (UniProt Q04837); assay: native gel or EMSA; DNA recruitment assay: Dna2-E675A added to 5'-overhanged DNA (45 nt ssDNA, 48 bp dsDNA, 1 nM) precoated on ice for 5 min with RPA variant or mtSSB (8 nM); 5 mM Mg2+, 150 mM NaCl; 4% polyacrylamide gel; both purified
T1 sequence: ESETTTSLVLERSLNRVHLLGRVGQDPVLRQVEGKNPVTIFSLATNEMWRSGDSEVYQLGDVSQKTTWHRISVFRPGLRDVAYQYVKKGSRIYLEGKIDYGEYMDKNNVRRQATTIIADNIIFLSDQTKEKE

| binding [1] | Substance | other results |
| --- | --- | --- |
| binds | Rfa2, subunit, as co-expressed in the S. cerevisiae RPA heterotrimer (from UniProt P26754 1-273) | – |
| binds | Rfa3, subunit, as co-expressed in the S. cerevisiae RPA heterotrimer (from UniProt P26755 1-122) | – |
| – | S. cerevisiae Dna2, wild type (from UniProt P38859 1-1522) (enzyme) | binding [2]: no binding (tested: 20-80 nM) |
| – | S. cerevisiae Dna2-E675A (nuclease-dead) (from UniProt P38859 1-1522) (enzyme) | binding [3]: no binding |
